These are yes or no findings as the source states them, for the method shown. For part of these data: In cells and extracts the contact can be indirect. Some entries that bind do so weakly or less than the wild type. For part of these data: Where a sequence is shown, tags or fusion partners need not be part of it.
How the values were obtained:
[1] = target: T1, CPK6 bait of the DUAL membrane split-ubiquitin system (Arabidopsis thaliana) (UniProt Q38872); test: two-hybrid
T1 sequence: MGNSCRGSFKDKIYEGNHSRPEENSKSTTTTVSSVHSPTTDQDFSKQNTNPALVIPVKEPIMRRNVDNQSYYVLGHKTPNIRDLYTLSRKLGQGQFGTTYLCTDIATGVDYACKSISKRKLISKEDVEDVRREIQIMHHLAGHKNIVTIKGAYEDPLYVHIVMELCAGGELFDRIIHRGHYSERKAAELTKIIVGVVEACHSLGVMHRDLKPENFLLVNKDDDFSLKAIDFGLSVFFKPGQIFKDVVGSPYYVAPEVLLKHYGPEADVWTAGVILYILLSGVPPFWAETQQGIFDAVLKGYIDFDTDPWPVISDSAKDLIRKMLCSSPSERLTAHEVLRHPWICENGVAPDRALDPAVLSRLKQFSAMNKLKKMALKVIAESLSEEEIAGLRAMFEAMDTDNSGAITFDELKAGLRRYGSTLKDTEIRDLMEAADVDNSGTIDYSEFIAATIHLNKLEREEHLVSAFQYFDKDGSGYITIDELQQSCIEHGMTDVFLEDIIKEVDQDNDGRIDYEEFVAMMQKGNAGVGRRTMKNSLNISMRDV

[2] = target: T2, cYFP-CPK6 (Arabidopsis thaliana) (UniProt Q38872); test: split reporter
T2 sequence: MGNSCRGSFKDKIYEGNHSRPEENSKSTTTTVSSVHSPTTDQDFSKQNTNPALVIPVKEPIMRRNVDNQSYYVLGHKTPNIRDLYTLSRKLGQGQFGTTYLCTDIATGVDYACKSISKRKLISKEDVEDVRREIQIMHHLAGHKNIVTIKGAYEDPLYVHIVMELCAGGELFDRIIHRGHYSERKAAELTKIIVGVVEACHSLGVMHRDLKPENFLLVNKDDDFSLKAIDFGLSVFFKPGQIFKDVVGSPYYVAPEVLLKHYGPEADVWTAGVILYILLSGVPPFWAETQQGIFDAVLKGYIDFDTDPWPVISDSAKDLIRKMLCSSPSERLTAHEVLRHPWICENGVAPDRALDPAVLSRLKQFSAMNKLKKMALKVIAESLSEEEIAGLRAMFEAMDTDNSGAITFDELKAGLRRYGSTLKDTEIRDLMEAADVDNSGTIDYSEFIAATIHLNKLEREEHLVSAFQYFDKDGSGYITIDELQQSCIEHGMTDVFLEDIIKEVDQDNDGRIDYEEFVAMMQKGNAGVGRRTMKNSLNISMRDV

[3] = target: T3, pGBD-CPK6 (Arabidopsis thaliana) (UniProt Q38872); test: two-hybrid
T3 sequence: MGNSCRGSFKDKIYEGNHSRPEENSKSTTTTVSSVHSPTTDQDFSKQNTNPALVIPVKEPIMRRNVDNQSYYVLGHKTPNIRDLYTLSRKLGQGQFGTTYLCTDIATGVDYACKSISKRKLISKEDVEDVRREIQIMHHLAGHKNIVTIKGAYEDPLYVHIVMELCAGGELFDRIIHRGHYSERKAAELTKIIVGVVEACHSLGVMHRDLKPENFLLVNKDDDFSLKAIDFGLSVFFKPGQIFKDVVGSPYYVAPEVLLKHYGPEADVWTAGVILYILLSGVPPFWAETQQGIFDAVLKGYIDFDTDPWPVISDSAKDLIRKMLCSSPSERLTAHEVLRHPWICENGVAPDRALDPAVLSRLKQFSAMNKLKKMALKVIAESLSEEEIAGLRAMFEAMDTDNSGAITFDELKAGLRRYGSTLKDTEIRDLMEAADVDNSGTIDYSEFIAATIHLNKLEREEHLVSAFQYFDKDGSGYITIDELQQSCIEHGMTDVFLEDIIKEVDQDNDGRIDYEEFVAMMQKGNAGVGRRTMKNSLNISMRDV

CPK26 = target: T4, CPK26 (UniProt Q9SZM3); test: two-hybrid
T4 sequence: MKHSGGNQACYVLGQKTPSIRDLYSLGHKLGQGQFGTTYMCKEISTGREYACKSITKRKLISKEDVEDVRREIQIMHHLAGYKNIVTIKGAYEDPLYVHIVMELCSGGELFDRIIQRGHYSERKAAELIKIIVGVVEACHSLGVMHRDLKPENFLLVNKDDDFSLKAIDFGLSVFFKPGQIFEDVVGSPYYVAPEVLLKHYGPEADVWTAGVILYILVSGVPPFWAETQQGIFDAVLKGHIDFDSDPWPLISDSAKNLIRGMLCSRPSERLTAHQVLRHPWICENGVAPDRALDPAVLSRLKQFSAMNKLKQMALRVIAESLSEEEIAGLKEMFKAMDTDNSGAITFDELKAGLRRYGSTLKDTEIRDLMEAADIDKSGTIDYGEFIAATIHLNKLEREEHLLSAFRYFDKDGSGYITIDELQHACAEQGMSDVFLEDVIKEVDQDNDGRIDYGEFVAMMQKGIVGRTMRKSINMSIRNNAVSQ

CPK5 = target: T5, CPK5 (UniProt Q38871); test: two-hybrid
T5 sequence: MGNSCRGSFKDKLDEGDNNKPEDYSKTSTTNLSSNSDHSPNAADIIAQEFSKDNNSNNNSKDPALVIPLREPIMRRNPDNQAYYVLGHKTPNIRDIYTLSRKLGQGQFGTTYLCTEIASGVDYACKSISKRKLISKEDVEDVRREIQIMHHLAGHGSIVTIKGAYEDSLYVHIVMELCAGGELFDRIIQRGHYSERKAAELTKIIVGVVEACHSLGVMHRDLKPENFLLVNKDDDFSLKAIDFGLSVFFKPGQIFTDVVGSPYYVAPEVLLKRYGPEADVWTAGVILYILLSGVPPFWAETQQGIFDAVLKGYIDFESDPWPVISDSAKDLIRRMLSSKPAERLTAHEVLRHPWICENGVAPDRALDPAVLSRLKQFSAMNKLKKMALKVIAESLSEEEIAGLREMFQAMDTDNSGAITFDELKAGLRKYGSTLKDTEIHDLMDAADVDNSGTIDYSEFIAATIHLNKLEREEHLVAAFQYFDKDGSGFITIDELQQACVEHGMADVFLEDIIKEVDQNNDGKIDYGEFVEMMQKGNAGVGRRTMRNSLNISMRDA

CPK25 = target: T6, CPK25 (UniProt Q9SJ61); test: two-hybrid
T6 sequence: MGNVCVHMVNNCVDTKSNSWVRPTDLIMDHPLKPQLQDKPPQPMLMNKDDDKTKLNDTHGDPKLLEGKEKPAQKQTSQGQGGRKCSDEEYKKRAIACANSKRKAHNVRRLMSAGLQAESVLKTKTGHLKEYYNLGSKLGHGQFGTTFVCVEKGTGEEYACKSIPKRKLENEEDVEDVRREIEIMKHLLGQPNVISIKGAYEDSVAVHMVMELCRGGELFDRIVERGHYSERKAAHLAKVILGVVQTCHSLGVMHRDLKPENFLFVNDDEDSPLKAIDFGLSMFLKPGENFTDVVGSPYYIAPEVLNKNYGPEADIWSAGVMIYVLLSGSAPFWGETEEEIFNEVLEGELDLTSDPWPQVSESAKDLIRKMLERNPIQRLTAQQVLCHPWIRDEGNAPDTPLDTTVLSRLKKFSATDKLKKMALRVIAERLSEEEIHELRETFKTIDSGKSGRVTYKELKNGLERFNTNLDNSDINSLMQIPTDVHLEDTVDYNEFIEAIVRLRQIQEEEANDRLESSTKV

B1: NRT1.1 prey of the DUAL membrane split-ubiquitin system (protein, UniProt Q05085 1-590)
chain: MSLPETKSDDILLDAWDFQGRPADRSKTGGWASAAMILCIEAVERLTTLGIGVNLVTYLTGTMHLGNATAANTVTNFLGTSFMLCLLGGFIADTFLGRYLTIAIFAAIQATGVSILTLSTIIPGLRPPRCNPTTSSHCEQASGIQLTVLYLALYLTALGTGGVKASVSGFGSDQFDETEPKERSKMTYFFNRFFFCINVGSLLAVTVLVYVQDDVGRKWGYGICAFAIVLALSVFLAGTNRYRFKKLIGSPMTQVAAVIVAAWRNRKLELPADPSYLYDVDDIIAAEGSMKGKQKLPHTEQFRSLDKAAIRDQEAGVTSNVFNKWTLSTLTDVEEVKQIVRMLPIWATCILFWTVHAQLTTLSVAQSETLDRSIGSFEIPPASMAVFYVGGLLLTTAVYDRVAIRLCKKLFNYPHGLRPLQRIGLGLFFGSMAMAVAALVELKRLRTAHAHGPTVKTLPLGFYLLIPQYLIVGIGEALIYTGQLDFFLRECPKGMKGMSTGLLLSTLALGFFFSSVLVTIVEKFTGKAHPWIADDLNKGRLYNFYWLVAVLVALNFLIFLVFSKWYVYKEKRLAEVGIELDDEPSIPMGH
[1]
  binding: binds

B2: nYFP-NRT1.1 (protein, UniProt Q05085 1-590)
chain: MSLPETKSDDILLDAWDFQGRPADRSKTGGWASAAMILCIEAVERLTTLGIGVNLVTYLTGTMHLGNATAANTVTNFLGTSFMLCLLGGFIADTFLGRYLTIAIFAAIQATGVSILTLSTIIPGLRPPRCNPTTSSHCEQASGIQLTVLYLALYLTALGTGGVKASVSGFGSDQFDETEPKERSKMTYFFNRFFFCINVGSLLAVTVLVYVQDDVGRKWGYGICAFAIVLALSVFLAGTNRYRFKKLIGSPMTQVAAVIVAAWRNRKLELPADPSYLYDVDDIIAAEGSMKGKQKLPHTEQFRSLDKAAIRDQEAGVTSNVFNKWTLSTLTDVEEVKQIVRMLPIWATCILFWTVHAQLTTLSVAQSETLDRSIGSFEIPPASMAVFYVGGLLLTTAVYDRVAIRLCKKLFNYPHGLRPLQRIGLGLFFGSMAMAVAALVELKRLRTAHAHGPTVKTLPLGFYLLIPQYLIVGIGEALIYTGQLDFFLRECPKGMKGMSTGLLLSTLALGFFFSSVLVTIVEKFTGKAHPWIADDLNKGRLYNFYWLVAVLVALNFLIFLVFSKWYVYKEKRLAEVGIELDDEPSIPMGH
[2]
  binding: binds

B3: pGAD-NRT1.1 (protein, UniProt Q05085 1-590)
chain: MSLPETKSDDILLDAWDFQGRPADRSKTGGWASAAMILCIEAVERLTTLGIGVNLVTYLTGTMHLGNATAANTVTNFLGTSFMLCLLGGFIADTFLGRYLTIAIFAAIQATGVSILTLSTIIPGLRPPRCNPTTSSHCEQASGIQLTVLYLALYLTALGTGGVKASVSGFGSDQFDETEPKERSKMTYFFNRFFFCINVGSLLAVTVLVYVQDDVGRKWGYGICAFAIVLALSVFLAGTNRYRFKKLIGSPMTQVAAVIVAAWRNRKLELPADPSYLYDVDDIIAAEGSMKGKQKLPHTEQFRSLDKAAIRDQEAGVTSNVFNKWTLSTLTDVEEVKQIVRMLPIWATCILFWTVHAQLTTLSVAQSETLDRSIGSFEIPPASMAVFYVGGLLLTTAVYDRVAIRLCKKLFNYPHGLRPLQRIGLGLFFGSMAMAVAALVELKRLRTAHAHGPTVKTLPLGFYLLIPQYLIVGIGEALIYTGQLDFFLRECPKGMKGMSTGLLLSTLALGFFFSSVLVTIVEKFTGKAHPWIADDLNKGRLYNFYWLVAVLVALNFLIFLVFSKWYVYKEKRLAEVGIELDDEPSIPMGH
[3]
  binding: binds
CPK26
  binding: no binding
CPK5
  binding: no binding
CPK25
  binding: no binding

From paper doi:10.1101/2022.10.06.511240 (bioRxiv, 2022)
